Taken from: PubChem BioAssay AID504793 (Drosophila RNAi Screening Center, 2011)

Assay: 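Knock-downs allowing continued mitosis even though DNA is damaged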 (primary screen)
Cells: Drosophila S2R+ cells
Knock-down reagent: long dsRNA against Drosophila genes, about 0.25 µg dsRNA per well
Duration: 4 days of dsRNA, then 4 hours of drug before read-out
Conditions: doxorubicin 0.5 µM for 4 hours to cause double-strand breaks, in cells also given a low, harmless dose of dsRNA against nbs to sensitise the assay
Detection: 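Per-well count of mitotic cells stained for phospho-histone H3 after doxorubicin exposure, used as mitotic index; counts are raw and not normalised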
Reading the numbers: mitotic cells: higher = more cells in mitosis, weaker G2 arrest
Call rule: 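Genes are called active only when high mitotic counts were reproduced with independent dsRNAs and mitosis was checked for delay without damage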
Calls: active = confirmed in follow-up tests; inactive = not confirmed
The screen tested about 23,000 reagents; below is an unselected part of those with a known target gene and a result. In the full data, 62 (0.27%) are marked active. 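Calls come from follow-up tests whose scores are not deposited, so confirmed genes may have low counts here; counts are not normalised per plate.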 The raw values are shown without normalisation. A number with no mark means an inactive call.

{"gene":"CG14543","DRSC id":"DRSC14887","mitotic cells, replicate 1":4}
{"gene":"CG14543","DRSC id":"DRSC26647","mitotic cells, replicate 1":2}
{"gene":"Coq6 (Coenzyme Q6)","DRSC id":"DRSC03040","mitotic cells, replicate 1":6}
{"gene":"Coq6 (Coenzyme Q6)","DRSC id":"DRSC29622","mitotic cells, replicate 1":9}
{"gene":"CG12689","DRSC id":"DRSC17879","mitotic cells, replicate 1":11}
{"gene":"Tpi (Triose phosphate isomerase)","DRSC id":"DRSC16888","mitotic cells, replicate 1":13}
{"gene":"CG13607","DRSC id":"DRSC14610","mitotic cells, replicate 1":14}
{"gene":"CG17027","DRSC id":"DRSC10238","mitotic cells, replicate 1":9}
{"gene":"CG17027","DRSC id":"DRSC25560","mitotic cells, replicate 1":5}
{"gene":"CrebA (Cyclic-AMP response element binding protein A)","DRSC id":"DRSC11122","mitotic cells, replicate 1":4}
{"gene":"CG11563","DRSC id":"DRSC14327","mitotic cells, replicate 1":12}
{"gene":"MagR (Magnetic receptor)","DRSC id":"DRSC20092","mitotic cells, replicate 1":11}
{"gene":"CG1999","DRSC id":"DRSC18199","mitotic cells, replicate 1":12}
{"gene":"CG1999","DRSC id":"DRSC29137","mitotic cells, replicate 1":9}
{"gene":"CG13894","DRSC id":"DRSC23205","mitotic cells, replicate 1":14}
{"gene":"CG13894","DRSC id":"DRSC29274","mitotic cells, replicate 1":3}
{"gene":"CG14490","DRSC id":"DRSC06461","mitotic cells, replicate 1":6}
{"gene":"CG14490","DRSC id":"DRSC27641","mitotic cells, replicate 1":7}
{"gene":"mRpL35 (mitochondrial ribosomal protein L35)","DRSC id":"DRSC14586","mitotic cells, replicate 1":4}
{"gene":"RpL29 (Ribosomal protein L29)","DRSC id":"DRSC04650","mitotic cells, replicate 1":11}
{"gene":"CG15111","DRSC id":"DRSC21467","mitotic cells, replicate 1":6}
{"gene":"Chmp1 (Charged multivesicular body protein 1)","DRSC id":"DRSC10401","mitotic cells, replicate 1":8}
{"gene":"Chmp1 (Charged multivesicular body protein 1)","DRSC id":"DRSC25878","mitotic cells, replicate 1":11}
